Experimental data as given in the supplement of paper PMC7666118.
This is one part of the list.

Amino acid sequences for entries named in this document (tags omitted). A change or cut given only in a name is not applied to a line headed by its entry.
UniProt Q9H0K6: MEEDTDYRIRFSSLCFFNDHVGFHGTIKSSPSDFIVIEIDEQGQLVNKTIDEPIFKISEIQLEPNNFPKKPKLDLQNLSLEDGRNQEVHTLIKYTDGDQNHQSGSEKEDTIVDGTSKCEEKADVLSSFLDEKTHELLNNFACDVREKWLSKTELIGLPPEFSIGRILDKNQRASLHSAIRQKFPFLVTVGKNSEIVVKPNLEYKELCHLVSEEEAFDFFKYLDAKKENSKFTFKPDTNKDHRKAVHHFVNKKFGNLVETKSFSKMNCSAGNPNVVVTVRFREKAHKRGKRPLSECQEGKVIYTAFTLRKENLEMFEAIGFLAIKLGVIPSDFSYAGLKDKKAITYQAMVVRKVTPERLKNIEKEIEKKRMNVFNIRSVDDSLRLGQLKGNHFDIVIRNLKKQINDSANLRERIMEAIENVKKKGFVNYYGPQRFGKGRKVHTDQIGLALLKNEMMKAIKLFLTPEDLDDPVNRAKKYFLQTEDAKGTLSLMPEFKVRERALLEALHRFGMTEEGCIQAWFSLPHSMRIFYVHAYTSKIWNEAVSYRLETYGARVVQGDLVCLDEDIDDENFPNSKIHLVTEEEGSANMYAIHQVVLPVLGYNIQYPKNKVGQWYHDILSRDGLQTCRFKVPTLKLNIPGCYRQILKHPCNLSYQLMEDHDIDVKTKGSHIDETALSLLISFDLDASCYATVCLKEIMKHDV
UniProt Q8WU10: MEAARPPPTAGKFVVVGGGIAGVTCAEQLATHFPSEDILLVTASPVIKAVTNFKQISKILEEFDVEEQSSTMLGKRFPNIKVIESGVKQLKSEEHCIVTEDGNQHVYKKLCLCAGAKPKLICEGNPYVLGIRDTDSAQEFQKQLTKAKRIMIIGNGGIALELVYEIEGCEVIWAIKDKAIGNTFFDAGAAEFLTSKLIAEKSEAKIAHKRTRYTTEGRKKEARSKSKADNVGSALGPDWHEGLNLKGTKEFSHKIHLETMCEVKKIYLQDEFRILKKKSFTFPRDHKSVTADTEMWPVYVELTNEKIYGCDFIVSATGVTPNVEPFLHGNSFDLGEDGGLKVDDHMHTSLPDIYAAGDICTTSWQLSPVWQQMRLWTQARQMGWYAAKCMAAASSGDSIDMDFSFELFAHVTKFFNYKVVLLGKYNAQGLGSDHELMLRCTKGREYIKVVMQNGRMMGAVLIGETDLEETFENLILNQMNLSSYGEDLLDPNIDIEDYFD
UniProt Q8NDX1: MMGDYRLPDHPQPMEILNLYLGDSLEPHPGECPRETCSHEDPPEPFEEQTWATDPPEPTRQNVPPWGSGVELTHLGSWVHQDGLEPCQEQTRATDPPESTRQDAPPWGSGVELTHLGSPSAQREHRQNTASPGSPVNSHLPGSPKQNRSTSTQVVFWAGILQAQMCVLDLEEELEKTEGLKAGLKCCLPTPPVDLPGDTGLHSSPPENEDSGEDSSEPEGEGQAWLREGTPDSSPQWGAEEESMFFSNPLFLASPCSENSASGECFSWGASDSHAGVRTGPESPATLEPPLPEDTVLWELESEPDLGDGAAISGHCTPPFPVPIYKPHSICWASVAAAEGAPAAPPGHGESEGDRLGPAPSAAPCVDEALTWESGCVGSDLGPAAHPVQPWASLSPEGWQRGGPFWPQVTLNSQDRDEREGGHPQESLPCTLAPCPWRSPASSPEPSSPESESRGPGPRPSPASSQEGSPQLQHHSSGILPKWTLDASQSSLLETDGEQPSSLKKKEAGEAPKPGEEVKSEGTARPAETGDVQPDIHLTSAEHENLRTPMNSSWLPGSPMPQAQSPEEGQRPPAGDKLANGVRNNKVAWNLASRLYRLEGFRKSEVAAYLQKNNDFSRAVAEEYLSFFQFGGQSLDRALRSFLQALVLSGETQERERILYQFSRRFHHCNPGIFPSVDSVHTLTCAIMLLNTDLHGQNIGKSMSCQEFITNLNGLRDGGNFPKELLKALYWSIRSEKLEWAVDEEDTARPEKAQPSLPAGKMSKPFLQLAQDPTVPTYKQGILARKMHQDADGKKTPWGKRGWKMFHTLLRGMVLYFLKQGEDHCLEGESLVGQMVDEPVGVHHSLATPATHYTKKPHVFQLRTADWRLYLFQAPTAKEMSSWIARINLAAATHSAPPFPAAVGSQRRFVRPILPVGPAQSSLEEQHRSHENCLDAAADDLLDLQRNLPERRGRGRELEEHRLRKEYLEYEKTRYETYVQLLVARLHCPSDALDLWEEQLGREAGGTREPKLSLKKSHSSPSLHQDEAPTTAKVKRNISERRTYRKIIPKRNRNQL
UniProt P20338: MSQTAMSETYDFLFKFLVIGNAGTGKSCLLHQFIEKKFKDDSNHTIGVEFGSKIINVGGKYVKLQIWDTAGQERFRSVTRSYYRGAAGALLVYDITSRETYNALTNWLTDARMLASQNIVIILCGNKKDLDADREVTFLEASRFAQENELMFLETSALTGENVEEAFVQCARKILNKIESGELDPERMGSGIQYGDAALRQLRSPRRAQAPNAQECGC
UniProt O00232: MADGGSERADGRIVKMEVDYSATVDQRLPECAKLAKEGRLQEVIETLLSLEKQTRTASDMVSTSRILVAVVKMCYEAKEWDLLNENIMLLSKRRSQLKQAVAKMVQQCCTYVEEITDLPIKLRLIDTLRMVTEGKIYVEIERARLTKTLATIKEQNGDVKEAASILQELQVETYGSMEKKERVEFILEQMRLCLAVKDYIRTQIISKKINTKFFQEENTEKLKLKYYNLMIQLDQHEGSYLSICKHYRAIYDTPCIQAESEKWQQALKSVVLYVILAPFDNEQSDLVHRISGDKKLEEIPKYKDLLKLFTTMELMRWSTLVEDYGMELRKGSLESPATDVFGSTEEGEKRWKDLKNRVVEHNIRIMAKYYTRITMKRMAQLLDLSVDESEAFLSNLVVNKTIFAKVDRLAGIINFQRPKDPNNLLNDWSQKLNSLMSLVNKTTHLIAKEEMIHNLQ
UniProt Q9NXS2: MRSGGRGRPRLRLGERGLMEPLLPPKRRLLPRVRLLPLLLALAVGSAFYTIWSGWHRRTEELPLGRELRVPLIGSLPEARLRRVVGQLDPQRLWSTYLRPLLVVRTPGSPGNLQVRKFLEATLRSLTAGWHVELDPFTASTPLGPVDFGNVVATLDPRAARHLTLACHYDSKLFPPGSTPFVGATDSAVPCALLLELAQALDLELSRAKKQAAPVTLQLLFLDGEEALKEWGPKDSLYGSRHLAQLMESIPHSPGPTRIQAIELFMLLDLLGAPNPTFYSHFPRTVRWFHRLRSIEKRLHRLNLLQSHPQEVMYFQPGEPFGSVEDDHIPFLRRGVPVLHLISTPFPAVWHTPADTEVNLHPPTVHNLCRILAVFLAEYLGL
UniProt Q9H5N1: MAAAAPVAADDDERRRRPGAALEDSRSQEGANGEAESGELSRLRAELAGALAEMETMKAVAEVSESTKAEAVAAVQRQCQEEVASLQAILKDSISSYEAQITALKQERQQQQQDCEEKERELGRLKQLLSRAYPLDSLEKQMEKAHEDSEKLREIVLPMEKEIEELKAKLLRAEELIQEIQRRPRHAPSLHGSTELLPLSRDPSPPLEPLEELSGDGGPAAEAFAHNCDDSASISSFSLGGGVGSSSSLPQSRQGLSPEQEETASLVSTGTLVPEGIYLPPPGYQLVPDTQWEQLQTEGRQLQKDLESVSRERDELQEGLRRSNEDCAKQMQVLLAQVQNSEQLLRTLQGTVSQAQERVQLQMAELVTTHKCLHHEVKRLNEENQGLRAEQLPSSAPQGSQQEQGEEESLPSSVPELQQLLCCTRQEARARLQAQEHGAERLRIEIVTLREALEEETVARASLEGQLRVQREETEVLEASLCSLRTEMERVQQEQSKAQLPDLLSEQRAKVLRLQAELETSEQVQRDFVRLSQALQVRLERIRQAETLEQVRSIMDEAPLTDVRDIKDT
UniProt P52306: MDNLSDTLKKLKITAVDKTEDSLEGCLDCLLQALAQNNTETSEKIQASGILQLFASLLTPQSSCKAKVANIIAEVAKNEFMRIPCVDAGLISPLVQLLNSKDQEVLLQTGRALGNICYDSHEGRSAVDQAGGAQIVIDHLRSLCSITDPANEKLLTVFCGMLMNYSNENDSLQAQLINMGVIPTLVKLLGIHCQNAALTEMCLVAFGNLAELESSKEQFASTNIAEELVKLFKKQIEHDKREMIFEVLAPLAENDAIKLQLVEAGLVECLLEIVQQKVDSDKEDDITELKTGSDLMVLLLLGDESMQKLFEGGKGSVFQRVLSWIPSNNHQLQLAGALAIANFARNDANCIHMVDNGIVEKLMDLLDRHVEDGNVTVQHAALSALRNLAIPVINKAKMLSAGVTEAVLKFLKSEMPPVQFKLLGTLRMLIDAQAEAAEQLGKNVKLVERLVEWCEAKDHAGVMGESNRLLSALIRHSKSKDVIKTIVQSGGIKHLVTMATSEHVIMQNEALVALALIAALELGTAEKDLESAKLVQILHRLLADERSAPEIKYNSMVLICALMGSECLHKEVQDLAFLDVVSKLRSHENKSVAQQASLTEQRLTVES

Compound: COc1ccc(Cn2ccc3ccc(C(=O)NO)cc32)cc1
Assay: dose-dependent thermal stabilisation call (2D-TPP, DLPTP, 10% FDR) (binary (1 = stabilised)); higher = stabilised by the compound
Conditions: system: HL-60 intact cells; concentration range 0.04-10 µM

| Target | dose-dependent thermal stabilisation call |
| --- | --- |
| PUS7L (UniProt Q9H0K6) | inactive: 0 |
| PYROXD1 (UniProt Q8WU10) | inactive: 0 |
| PSD4 (UniProt Q8NDX1) | inactive: 0 |
| RAB4A (UniProt P20338) | inactive: 0 |
| PSMD12 (UniProt O00232) | inactive: 0 |
| RBM8A (UniProt Q9Y5S9) | inactive: 0 |
| QPCTL (UniProt Q9NXS2) | inactive: 0 |
| RABEP2 (UniProt Q9H5N1) | inactive: 0 |
| RAP1GDS1 (UniProt P52306) | inactive: 0 |
